For one assay, the target named is OB-Rs-YFP. Put plainly: BRET in living cells, equimolar coexpression.
For the next assay, the target named is β-arrestine2-YFP. Put plainly: BRET in living HEK cells, equimolar coexpression.

Results are given in words; binding and its absence hold for the method and conditions named. For part of these data: Binding can be weak; no strength is given. Sequences can lack the tags named with a protein.

These results are taken from patent publication US20050009042A1 (AVENTIS PHARMA S A, published 2005).

B1: MYO47-Luc (other)
chain: MAGIKALISLSFGGAIGLMFLMLGCALPIYNKYWPLFVLFFYILSPIPYCIARRLVDDTDAMSNACKELAIFLTTGIVVSAFGLPIVFARAHLIEWGACALVLTGNTVIFATILGFFLVFGSNDDFSWQQW
notes: also called MY047-Rluc; not shown: Renilla luciferase (vector pcDNA3-Rluc)
Regarding B1, in the assay with OB-Rs-YFP, the binding entry was “binds”.

B2: OB-RGRP-Luc (other)
chain: MAGVKALVALSFSGAIGLTFLMLGCALEDYGVYWPLFVLIFHAISPIPHFIAKRVTYDSDATSSACRELAYFFTTGIVVSAFGFPVILARVAVIKWGACGLVLAGNAVIFLTIQGFFLIFGRGDDFSWEQW
notes: Expressed in cells from pcDNA3-OB-RGRP-Luc; also called OB-RGRP-Rluc; not shown: Renilla luciferase, coding region from vector pRL-CMV (Promega)
Take B2: the binding entry with β-arrestine2-YFP is “no binding”; with OB-Rs-YFP it was “binds”.
